Assay results from patent publication US7348407.
Results are given in words; binding and its absence hold for the method and conditions named. Binding seen in cells or lysates may run through a third protein. Some entries that bind do so weakly or less than the wild type. For part of these data: Tags and fused reporters may be left off the sequences shown. Each block holds one binder with its values, some of them ahead of it.

Protein sequences, listed by entry. Tags and fused reporters are not part of them. Residues count along the entry.
UniProt B2RWS6, residues 2-2412: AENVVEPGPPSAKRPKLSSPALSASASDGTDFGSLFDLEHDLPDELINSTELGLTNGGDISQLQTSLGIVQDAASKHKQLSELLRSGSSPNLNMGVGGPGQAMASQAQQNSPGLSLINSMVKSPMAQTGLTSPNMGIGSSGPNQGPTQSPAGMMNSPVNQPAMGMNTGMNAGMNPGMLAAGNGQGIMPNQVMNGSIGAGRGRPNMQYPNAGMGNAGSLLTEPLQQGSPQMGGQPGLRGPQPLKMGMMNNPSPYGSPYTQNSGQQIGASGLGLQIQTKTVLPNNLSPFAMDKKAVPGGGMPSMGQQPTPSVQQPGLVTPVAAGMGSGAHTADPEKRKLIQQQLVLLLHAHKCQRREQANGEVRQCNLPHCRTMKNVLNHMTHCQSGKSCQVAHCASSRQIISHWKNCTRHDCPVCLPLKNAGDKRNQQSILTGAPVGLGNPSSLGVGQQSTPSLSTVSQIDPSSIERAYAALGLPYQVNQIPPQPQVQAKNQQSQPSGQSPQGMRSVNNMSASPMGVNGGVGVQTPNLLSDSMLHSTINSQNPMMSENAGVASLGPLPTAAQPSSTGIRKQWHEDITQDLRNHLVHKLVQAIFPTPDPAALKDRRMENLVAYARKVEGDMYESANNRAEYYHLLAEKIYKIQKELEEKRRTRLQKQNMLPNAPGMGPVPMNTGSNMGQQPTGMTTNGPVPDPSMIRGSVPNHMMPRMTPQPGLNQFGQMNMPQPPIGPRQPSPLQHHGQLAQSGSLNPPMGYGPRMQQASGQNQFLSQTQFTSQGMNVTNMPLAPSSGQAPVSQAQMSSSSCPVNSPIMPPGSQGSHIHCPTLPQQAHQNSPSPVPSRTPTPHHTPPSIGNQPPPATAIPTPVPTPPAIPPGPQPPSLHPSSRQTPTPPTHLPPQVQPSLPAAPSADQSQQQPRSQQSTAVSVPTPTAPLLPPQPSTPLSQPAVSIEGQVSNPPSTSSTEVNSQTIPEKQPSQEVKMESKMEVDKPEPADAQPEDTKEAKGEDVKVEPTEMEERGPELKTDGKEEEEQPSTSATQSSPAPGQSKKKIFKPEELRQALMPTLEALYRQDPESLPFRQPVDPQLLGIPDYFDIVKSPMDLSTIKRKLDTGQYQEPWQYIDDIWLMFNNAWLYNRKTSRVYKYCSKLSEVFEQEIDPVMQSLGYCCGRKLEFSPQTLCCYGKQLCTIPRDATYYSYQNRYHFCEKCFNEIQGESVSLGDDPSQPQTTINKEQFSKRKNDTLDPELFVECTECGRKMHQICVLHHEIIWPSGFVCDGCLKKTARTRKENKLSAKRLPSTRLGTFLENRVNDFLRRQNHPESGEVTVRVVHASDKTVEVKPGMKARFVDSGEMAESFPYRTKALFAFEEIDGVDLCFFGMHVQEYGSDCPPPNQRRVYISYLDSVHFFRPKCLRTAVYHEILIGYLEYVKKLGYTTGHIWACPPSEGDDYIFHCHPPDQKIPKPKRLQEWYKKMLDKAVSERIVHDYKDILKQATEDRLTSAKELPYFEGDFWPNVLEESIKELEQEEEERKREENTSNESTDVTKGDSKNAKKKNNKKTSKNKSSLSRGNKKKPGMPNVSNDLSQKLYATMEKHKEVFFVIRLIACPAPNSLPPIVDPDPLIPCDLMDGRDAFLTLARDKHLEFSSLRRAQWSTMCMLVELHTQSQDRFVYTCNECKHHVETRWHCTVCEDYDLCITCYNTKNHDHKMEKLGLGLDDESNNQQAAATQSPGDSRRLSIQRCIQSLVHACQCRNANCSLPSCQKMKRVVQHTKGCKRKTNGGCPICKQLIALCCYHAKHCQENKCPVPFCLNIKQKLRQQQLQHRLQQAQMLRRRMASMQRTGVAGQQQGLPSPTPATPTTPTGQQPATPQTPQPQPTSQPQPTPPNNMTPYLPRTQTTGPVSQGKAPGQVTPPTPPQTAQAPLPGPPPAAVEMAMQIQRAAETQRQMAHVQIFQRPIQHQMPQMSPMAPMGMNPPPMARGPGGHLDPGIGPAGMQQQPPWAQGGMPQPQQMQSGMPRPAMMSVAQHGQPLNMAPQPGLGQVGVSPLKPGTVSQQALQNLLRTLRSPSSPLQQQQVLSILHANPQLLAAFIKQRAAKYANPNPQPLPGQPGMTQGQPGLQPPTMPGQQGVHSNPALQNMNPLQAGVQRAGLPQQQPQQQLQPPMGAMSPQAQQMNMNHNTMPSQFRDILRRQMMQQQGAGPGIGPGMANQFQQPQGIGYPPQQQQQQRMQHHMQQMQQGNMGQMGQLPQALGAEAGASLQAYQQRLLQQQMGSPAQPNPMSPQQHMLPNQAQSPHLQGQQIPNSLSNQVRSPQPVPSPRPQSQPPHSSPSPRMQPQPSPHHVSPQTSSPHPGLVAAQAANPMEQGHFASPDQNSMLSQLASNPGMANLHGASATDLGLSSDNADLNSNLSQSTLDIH
UniProt Q09472: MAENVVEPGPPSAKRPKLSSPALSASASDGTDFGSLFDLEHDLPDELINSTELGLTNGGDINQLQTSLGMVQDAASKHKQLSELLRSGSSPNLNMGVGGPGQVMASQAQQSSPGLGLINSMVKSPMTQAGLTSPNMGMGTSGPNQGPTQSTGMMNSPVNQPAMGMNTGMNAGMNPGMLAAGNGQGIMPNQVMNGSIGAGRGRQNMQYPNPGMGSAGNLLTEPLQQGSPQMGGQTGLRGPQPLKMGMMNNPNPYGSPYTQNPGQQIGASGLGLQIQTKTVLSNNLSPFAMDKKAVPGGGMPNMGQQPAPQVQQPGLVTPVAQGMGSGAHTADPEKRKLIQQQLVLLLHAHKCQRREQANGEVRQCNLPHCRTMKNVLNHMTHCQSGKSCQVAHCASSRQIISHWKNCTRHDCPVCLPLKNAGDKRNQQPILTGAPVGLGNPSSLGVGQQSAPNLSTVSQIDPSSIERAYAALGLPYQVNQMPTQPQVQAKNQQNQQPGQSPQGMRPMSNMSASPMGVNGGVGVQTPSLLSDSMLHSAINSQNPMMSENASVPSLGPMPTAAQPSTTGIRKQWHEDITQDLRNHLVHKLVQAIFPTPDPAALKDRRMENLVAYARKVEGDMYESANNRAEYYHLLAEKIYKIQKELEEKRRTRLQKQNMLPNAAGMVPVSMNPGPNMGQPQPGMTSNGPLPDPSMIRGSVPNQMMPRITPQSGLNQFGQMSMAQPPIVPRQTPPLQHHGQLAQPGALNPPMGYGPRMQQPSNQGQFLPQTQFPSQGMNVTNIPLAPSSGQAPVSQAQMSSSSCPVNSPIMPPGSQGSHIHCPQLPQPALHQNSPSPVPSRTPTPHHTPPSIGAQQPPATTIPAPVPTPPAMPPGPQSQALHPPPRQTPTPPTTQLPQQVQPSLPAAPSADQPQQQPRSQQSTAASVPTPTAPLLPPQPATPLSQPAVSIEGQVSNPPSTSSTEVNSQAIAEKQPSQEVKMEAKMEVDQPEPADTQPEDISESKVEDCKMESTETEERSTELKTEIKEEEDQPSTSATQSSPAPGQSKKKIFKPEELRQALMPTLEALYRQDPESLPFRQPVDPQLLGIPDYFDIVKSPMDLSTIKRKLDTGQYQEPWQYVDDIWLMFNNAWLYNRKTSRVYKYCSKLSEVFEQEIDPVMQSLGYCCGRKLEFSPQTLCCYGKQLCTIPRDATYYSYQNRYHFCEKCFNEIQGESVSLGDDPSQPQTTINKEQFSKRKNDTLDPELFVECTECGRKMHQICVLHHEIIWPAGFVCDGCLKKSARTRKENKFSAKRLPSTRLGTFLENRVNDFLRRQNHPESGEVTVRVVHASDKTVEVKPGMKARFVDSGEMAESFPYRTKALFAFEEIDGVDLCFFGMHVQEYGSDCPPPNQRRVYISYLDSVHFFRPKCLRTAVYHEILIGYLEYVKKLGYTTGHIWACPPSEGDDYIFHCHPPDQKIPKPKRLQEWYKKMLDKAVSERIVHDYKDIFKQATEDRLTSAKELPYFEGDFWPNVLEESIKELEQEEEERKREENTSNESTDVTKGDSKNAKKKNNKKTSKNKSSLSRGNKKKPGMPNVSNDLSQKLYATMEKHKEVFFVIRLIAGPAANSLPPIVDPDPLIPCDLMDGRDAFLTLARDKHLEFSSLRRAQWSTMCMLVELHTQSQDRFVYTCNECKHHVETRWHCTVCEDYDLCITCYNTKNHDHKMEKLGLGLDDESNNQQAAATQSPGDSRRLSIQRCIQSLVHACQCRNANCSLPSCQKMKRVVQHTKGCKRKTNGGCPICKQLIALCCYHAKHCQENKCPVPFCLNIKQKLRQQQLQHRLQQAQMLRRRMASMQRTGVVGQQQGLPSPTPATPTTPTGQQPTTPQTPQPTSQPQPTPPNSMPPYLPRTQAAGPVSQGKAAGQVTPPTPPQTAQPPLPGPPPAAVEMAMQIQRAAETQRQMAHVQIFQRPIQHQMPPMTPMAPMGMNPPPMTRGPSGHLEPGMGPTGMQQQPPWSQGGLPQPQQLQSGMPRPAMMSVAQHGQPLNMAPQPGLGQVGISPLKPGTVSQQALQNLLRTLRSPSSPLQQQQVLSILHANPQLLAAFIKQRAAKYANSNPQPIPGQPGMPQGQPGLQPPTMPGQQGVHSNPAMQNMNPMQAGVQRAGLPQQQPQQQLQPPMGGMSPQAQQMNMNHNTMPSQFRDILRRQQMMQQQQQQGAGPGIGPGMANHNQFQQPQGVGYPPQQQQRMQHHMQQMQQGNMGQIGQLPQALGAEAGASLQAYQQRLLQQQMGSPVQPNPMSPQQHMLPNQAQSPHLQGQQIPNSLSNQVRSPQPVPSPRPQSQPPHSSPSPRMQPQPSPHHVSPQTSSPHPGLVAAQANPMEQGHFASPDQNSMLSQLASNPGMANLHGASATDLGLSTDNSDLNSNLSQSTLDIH
UniProt Q9QXM1: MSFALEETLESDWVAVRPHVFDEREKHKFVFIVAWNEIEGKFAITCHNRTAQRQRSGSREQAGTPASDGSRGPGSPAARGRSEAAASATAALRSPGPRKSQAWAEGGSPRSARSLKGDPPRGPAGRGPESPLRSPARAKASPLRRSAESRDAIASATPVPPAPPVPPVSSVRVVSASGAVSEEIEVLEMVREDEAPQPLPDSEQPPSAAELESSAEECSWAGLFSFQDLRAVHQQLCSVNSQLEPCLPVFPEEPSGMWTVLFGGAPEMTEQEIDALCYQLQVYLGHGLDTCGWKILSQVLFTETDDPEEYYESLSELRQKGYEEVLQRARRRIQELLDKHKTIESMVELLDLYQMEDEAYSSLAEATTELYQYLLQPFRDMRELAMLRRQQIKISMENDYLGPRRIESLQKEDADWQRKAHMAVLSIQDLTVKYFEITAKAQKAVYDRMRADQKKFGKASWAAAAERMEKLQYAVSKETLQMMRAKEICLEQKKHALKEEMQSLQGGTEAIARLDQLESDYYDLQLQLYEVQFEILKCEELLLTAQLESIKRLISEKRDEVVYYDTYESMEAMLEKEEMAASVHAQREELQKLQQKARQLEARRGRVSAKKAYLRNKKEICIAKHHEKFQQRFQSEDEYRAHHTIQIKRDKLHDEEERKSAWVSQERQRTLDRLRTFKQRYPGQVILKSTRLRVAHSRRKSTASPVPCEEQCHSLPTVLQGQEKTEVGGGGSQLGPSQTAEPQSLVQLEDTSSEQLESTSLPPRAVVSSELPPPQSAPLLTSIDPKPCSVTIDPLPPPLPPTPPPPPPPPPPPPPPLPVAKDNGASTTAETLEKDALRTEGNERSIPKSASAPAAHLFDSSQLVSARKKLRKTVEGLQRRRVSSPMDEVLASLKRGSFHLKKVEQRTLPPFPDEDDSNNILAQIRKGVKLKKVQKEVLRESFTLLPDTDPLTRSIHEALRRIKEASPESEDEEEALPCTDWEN

Assays:
[1] = biological target: endogenous p300 in murine A31 cells (murine) (UniProt B2RWS6); experiment: co-immunoprecipitation of endogenous proteins: anti-p300 immunoprecipitation, anti-STRAP immunoblot
[2] = biological target: p300 (pCMV-p300, expressed in transfected cells) (UniProt Q09472); experiment: co-immunoprecipitation from transfected U2OS cells: anti-HA immunoprecipitation, anti-p300 immunoblot
[3] = biological target: JMY (pCMV-JMY, expressed in transfected cells) (UniProt Q9QXM1); experiment: co-immunoprecipitation from transfected U2OS cells: anti-HA immunoprecipitation, anti-JMY immunoblot

- binding [1]: binds
B1: endogenous STRAP in murine A31 cells (protein)
chain: MMADEEEEAKHVLQKLQGLVDRLYCFRDSYFETHSVEDAGRKQQDVQEEMEKTLQQMEEVLGSAQVEAQALMLKGKALNVTPDYSPEAEVLLSKAVKLEPELVEAWNQLGEVYWKKGDVTSAHTCFSGALTHCKNKVSLQNLSMVLRQLQTDSGDEHSRHVMDSVRQAKLAVQMDVLDGRSWYILGNAYLSLYFNTGQNPKISQQALSAYAQAEKVDRKASSNPDLHLNRATLHKYEESYGEALEGFSQAAALDPAWPEPQQREQQLLEFLSRLTSLLESKGKTKPKKLQSMLGSLRPAHLGPCGDGRYQSASGQKMTLELKPLSTLQPGVNSGTVVLGKVVFSLTTEEKVPFTFGLVDSDGPCYAVMVYNVVQSWGVLIGDSVAIPEPNLRHHQIRHKGKDYSFSSVRVETPLLLVVNGKPQNSSSQASATVASRPQCE

- binding [2]: binds
- binding [3]: binds
B2: HA-tagged STRAP (pCMV-HA-STRAP8-438) (protein, not shown: small tags and cut ends)
chain: EAKHVLQKLQGLVDRLYCFRDSYFETHSVEDAGRKQQDVQEEMEKTLQQMEEVLGSAQVEAQALMLKGKALNVTPDYSPEAEVLLSKAVKLEPELVEAWNQLGEVYWKKGDVTSAHTCFSGALTHCKNKVSLQNLSMVLRQLQTDSGDEHSRHVMDSVRQAKLAVQMDVLDGRSWYILGNAYLSLYFNTGQNPKISQQALSAYAQAEKVDRKASSNPDLHLNRATLHKYEESYGEALEGFSQAAALDPAWPEPQQREQQLLEFLSRLTSLLESKGKTKPKKLQSMLGSLRPAHLGPCGDGRYQSASGQKMTLELKPLSTLQPGVNSGTVVLGKVVFSLTTEEKVPFTFGLVDSDGPCYAVMVYNVVQSWGVLIGDSVAIPEPNLRHHQIRHKGKDYSFSSVRVETPLLLVVNGKPQNSSSQASATVASRPQ
